According to article doi:10.1101/262154:
Results are given in words; binding and its absence hold for the method and conditions named. Some results given as binding are weak or reduced against the parent protein; the word gives no strength. Blank lines part the entries; values can stand above or below the binder they belong to.

Sequences of proteins named here, by UniProt entry; tags and fusion partners are left off.
UniProt Q9VDD3: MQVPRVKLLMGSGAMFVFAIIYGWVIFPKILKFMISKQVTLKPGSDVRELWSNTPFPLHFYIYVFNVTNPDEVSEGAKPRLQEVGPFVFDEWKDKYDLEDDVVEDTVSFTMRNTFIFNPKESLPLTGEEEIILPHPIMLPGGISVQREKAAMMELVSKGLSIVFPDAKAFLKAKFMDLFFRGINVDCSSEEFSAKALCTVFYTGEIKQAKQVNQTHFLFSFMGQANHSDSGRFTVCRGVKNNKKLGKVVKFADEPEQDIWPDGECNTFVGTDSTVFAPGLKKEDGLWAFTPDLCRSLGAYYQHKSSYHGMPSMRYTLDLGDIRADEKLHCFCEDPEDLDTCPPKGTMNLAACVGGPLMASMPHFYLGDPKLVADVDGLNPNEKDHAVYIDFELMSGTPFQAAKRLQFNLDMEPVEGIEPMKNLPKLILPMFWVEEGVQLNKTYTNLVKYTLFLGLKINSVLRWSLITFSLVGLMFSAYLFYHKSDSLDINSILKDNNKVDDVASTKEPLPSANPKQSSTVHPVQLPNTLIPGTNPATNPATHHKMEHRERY

Target: Drosophila melanogaster sensory neuron membrane protein 1 (DmelSNMP1) (D. melanogaster) (UniProt Q9VDD3)
Experiment: two-hybrid

binding: binds weakly
B1: Drosophila melanogaster odorant receptor 22a (DmelOR22a) (receptor, UniProt P81909 1-397)
chain: MLSKFFPHIKEKPLSERVKSRDAFIYLDRVMWSFGWTEPENKRWILPYKLWLAFVNIVMLILLPISISIEYLHRFKTFSAGEFLSSLEIGVNMYGSSFKCAFTLIGFKKRQEAKVLLDQLDKRCLSDKERSTVHRYVAMGNFFDILYHIFYSTFVVMNFPYFLLERRHAWRMYFPYIDSDEQFYISSIAECFLMTEAIYMDLCTDVCPLISMLMARCHISLLKQRLRNLRSKPGRTEDEYLEELTECIRDHRLLLDYVDALRPVFSGTIFVQFLLIGTVLGLSMINLMFFSTFWTGVATCLFMFDVSMETFPFCYLCNMIIDDCQEMSNCLFQSDWTSADRRYKSTLVYFLHNLQQPITLTAGGVFPISMQTNLAMVKLAFSVVTVIKQFNLAERFQ

binding: binds weakly
B2: Drosophila melanogaster odorant receptor 67d (DmelOR67d) (receptor, UniProt Q9VT92 1-391)
chain: MLKMAKVEPVERYCKVIRMIRFCVGFCGNDVADPNFRMWWLTYAVMAAIAFFFACTGYTIYVGVVINGDLTIILQALAMVGSAVQGLTKLLVTANNASHMREVQNTYEDIYREYGSKGDEYAKCLEKRIRITWTLLIGFMLVYIILLGLVITFPIFYLLILHQKVLVMQFLIPFLDHTTDGGHLILTAAHVILITFGGFGNYGGDMYLFLFVTHVPLIKDIFCVKLTEFNELVMKRNDFPKVRAMLCDLLVWHQLYTRMLQTTKKIYSIVLFVQLSTTCVGLLCTISCIFMKAWPAAPLYLLYAAITLYTFCGLGTLVENSNEDFLSVIYTNCLWYELPVKEEKLIIMMLAKAQNEVVLTAADMAPLSMNTALQLTKGIYSFSMMLMNYLG
